Measured values taken from US20020115167A1.
No constants are given. Whether binding was seen depends on the method and setting. In cells and extracts the contact can be indirect. Some entries that bind do so weakly or less than the wild type.

Amino acid sequences for entries named in this document (tags omitted). Residues count along the entry.
UniProt P51140, residues 167-394: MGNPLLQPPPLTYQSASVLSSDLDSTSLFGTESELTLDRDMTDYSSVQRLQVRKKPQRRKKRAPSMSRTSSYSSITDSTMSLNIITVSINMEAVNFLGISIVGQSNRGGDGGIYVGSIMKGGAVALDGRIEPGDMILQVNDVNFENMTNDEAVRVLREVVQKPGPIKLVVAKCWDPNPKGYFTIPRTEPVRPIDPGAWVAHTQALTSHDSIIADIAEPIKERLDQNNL

Experiments:
[1] = target: Drosophila PAR-1 (dPAR-1), the Dishevelled-associated kinase (Drosophila); experiment: GST-fusion pull-down from Drosophila embryo lysates, in vitro kinase assay
[2] = target: Drosophila PAR-1 (dPAR-1), the Dishevelled-associated kinase (Drosophila); experiment: GST-fusion pull-down from staged Drosophila embryo lysates, in vitro kinase assay

binding [1]: binds
binding [2]: binds
Substance: GST-fusion protein containing the middle (DM) domain of Dsh (from UniProt P51140 167-394)
